The supplement of paper PMC10849652
Some of the results follow.

The chains behind the UniProt entries cited, without tags or fusion partners. Where a name states a change or a piece, a line headed by the entry shows the natural chain unless it says otherwise.
UniProt Q14690: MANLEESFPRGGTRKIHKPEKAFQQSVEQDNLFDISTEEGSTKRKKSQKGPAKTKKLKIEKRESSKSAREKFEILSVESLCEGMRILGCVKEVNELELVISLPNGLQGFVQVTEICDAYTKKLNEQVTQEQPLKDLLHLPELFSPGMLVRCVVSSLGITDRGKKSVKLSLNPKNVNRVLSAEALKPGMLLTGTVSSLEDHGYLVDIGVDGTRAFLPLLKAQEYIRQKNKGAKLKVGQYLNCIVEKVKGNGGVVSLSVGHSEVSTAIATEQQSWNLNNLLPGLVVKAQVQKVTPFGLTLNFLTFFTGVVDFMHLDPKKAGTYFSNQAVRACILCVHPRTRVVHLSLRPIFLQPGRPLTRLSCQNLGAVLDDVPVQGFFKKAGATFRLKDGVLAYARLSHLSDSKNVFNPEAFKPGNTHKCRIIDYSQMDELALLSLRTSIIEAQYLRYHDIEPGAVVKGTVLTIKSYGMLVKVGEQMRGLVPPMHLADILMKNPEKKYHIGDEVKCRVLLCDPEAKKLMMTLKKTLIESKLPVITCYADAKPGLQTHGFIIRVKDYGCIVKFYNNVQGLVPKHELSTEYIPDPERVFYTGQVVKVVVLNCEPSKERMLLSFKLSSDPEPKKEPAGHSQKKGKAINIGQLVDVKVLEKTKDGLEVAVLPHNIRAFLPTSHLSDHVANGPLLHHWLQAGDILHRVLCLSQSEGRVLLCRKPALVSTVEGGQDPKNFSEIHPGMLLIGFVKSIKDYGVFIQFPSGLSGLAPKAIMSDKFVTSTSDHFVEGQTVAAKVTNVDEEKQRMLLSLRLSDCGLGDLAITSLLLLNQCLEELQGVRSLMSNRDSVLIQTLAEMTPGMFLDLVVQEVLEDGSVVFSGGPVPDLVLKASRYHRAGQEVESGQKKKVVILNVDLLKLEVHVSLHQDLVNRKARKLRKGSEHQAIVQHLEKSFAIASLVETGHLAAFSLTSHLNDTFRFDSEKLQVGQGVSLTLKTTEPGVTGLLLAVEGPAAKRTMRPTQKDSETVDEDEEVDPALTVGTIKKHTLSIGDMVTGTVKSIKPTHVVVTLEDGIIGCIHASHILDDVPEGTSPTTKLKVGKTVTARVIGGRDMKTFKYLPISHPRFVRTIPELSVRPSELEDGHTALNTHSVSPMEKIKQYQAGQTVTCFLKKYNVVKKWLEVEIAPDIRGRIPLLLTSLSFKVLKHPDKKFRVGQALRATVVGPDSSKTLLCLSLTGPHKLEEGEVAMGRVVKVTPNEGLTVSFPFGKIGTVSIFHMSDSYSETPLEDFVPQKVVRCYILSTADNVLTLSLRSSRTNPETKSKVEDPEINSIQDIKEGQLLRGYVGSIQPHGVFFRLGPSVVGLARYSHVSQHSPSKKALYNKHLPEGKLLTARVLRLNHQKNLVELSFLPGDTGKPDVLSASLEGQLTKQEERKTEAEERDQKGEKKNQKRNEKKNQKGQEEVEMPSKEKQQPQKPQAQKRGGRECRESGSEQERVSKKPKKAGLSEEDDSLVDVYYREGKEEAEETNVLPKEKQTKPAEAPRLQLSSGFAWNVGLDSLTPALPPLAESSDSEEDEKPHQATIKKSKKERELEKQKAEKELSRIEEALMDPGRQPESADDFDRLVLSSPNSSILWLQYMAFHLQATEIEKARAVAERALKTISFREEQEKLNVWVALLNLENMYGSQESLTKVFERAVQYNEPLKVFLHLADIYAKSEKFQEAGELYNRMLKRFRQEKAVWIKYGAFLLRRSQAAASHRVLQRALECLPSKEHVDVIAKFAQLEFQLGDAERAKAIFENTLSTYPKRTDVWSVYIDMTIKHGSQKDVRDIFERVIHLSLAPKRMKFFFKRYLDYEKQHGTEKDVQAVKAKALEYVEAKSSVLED
UniProt P08559, whole entry, looked up: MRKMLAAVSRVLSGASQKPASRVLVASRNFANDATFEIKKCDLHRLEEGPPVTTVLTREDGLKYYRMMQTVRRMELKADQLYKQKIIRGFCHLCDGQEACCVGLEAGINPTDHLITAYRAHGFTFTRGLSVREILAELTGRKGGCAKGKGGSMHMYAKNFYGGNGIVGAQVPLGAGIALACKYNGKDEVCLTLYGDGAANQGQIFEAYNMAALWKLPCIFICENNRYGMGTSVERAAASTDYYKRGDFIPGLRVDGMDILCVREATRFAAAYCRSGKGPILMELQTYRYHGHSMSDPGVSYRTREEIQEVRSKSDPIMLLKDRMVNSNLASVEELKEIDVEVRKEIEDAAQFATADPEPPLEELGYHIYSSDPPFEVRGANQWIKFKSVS
UniProt Q6ZW49, whole entry, looked up: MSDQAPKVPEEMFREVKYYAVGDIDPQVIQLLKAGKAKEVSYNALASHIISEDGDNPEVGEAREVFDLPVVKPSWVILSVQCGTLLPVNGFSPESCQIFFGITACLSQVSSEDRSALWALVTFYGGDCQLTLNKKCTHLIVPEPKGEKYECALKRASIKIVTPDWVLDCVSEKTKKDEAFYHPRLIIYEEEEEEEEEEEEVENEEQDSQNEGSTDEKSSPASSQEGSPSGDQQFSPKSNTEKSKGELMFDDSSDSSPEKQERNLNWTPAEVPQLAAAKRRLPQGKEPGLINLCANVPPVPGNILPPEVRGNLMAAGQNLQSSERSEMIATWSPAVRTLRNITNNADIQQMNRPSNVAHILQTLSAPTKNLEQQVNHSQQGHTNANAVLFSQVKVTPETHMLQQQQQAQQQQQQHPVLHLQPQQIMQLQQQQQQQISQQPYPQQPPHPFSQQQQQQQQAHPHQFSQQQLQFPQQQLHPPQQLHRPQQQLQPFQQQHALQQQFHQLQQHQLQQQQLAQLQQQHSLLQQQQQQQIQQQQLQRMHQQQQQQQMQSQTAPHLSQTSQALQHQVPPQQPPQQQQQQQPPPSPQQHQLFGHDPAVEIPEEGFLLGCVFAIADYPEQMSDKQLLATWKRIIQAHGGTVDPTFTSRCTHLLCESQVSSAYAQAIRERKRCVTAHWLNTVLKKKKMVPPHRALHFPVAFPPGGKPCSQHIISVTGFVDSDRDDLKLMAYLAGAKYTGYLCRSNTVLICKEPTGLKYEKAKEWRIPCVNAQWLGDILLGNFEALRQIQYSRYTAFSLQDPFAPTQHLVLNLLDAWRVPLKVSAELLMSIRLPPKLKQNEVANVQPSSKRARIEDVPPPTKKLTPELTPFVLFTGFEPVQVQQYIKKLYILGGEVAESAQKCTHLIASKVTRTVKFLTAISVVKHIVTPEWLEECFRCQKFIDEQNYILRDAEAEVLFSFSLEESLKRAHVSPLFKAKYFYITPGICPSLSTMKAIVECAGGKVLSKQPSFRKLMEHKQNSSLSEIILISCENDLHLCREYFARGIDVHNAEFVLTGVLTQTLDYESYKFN
UniProt Q9BTK6, whole entry, looked up: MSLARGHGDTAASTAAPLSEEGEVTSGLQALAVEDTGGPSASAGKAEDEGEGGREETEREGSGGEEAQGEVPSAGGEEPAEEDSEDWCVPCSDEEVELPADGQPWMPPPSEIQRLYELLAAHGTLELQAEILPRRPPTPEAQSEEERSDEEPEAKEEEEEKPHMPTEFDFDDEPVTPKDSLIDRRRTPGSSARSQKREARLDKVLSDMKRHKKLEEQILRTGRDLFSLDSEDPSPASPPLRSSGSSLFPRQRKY
UniProt P0DJ07: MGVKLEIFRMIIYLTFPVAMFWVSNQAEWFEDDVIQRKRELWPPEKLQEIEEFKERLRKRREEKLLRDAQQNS
UniProt Q7Z2X7: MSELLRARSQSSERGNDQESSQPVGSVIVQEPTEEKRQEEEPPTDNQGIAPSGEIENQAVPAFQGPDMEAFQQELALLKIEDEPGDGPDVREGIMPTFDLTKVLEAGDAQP
UniProt Q99447: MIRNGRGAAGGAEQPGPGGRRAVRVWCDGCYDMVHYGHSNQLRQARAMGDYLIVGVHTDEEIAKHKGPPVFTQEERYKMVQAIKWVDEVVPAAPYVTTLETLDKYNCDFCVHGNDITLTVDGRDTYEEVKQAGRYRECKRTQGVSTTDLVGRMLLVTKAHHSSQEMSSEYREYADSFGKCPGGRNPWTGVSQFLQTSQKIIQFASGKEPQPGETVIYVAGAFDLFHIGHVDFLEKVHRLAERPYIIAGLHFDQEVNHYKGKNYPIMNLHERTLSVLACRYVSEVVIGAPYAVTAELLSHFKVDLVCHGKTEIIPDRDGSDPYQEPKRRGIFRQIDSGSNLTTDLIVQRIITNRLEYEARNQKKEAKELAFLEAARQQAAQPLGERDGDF
UniProt P05166: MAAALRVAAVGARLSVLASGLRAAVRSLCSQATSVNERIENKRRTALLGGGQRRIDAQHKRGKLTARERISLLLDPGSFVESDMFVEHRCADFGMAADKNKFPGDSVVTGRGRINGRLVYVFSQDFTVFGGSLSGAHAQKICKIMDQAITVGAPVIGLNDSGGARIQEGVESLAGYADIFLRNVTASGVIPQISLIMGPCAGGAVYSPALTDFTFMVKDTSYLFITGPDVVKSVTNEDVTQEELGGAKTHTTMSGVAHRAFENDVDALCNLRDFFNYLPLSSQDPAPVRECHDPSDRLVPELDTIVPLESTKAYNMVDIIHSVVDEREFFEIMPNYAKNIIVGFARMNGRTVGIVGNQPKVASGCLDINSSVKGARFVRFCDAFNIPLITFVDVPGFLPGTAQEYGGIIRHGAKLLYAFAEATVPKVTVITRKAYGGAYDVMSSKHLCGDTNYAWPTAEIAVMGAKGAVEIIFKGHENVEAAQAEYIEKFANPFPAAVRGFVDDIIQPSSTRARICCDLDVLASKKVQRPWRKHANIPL
UniProt O00541, whole entry, looked up: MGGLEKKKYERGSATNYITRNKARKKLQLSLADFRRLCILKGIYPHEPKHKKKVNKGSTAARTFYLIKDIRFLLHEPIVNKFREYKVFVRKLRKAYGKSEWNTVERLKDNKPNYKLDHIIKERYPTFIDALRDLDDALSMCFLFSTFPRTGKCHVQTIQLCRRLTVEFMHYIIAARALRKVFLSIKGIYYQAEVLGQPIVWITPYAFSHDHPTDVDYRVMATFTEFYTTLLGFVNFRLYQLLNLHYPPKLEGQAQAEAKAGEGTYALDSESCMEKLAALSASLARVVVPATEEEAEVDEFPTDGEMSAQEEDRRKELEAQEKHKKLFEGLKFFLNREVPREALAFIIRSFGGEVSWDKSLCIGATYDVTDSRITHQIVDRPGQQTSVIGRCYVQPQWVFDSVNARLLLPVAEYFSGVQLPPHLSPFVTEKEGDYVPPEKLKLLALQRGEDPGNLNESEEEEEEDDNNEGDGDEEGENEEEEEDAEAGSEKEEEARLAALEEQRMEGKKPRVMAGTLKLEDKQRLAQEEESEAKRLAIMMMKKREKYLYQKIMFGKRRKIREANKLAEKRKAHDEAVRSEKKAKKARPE
UniProt P13667: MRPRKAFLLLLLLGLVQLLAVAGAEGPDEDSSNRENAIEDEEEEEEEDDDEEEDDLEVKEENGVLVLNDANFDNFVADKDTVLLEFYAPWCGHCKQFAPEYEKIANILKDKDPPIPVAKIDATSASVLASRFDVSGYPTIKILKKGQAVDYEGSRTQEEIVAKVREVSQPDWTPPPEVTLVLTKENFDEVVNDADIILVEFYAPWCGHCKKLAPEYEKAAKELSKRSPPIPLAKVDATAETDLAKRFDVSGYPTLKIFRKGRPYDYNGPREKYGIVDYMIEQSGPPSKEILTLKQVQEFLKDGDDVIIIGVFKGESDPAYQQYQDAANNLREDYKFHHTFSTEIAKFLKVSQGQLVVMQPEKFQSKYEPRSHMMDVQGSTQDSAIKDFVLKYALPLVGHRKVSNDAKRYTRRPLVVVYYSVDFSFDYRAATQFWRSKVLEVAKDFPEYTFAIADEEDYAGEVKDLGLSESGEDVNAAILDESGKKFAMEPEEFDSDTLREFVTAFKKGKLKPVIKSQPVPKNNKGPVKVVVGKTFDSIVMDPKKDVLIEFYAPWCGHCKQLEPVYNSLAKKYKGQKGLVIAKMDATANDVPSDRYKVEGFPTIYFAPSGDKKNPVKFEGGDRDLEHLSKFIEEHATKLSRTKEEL
UniProt Q13310, whole entry, looked up: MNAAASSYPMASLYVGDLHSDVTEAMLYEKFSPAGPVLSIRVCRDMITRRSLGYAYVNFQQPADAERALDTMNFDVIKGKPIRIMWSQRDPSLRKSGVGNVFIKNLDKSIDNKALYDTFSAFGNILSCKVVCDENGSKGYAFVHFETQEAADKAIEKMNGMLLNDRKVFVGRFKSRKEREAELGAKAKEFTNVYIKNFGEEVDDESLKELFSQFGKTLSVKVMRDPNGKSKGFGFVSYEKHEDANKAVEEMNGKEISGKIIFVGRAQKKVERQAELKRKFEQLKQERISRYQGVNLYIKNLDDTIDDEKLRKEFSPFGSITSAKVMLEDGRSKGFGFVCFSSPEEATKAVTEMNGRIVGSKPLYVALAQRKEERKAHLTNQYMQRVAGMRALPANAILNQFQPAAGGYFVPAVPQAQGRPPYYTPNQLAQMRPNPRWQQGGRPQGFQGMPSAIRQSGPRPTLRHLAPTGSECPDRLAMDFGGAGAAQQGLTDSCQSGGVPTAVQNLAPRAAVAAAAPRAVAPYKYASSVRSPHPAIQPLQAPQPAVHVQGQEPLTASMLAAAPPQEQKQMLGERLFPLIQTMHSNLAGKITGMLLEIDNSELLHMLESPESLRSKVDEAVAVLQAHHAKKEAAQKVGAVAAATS

Assays:
Assay in all cases: log2 fold change, soluble protein after heating vs DMSO (PISA); higher = thermal stabilisation; K562 cells, 10 uM, 30 min; active = over 0.2 and 3.5 SD of the protein, either way, in both replicates (recomputed)
saracatinib = compound: CN1CCN(CCOc2cc(OC3CCOCC3)c3c(Nc4c(Cl)ccc5c4OCO5)ncnc3c2)CC1 [saracatinib]
How it was run: (§1)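 K562 cells at 2×10^6 cells/mL were exposed to 10 μM compound for 30 min, then aliquots were heated for 3 min across 48°C-58°C, pooled, and extracted in PBS containing 0.5% NP-40 at 4°C. The supernatant after 21,000xg for 90 min was taken as soluble protein and measured by TMTpro 16plex LC-MS/MS with channel sums equalised. Thermal stability is reported relative to control samples, with values from duplicates. Fold changes are given on a log2 scale.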

sotrastaurin = compound: CN1CCN(c2nc(C3=C(c4c[nH]c5ccccc45)C(=O)NC3=O)c3ccccc3n2)CC1 [sotrastaurin]
How it was run: as §1

alvocidib = compound: CN1CC[C@H](c2c(O)cc(O)c3c(=O)cc(-c4ccccc4Cl)oc23)[C@H](O)C1 [alvocidib]
How it was run: as §1

Tubastatin A = compound: CN1CCc2c(c3ccccc3n2Cc2ccc(C(=O)NO)cc2)C1 [Tubastatin A]
How it was run: as §1

[1] = compound: CNC(=O)C1=CC=CC=C1NC2=NC(=NC=C2Cl)NC3=C(C=C(C=C3)N4CCOCC4)OC
How it was run: as §1

defactinib = compound: CNC(=O)c1ccc(Nc2ncc(C(F)(F)F)c(NCc3nccnc3N(C)S(C)(=O)=O)n2)cc1 [defactinib]
How it was run: as §1

rucaparib = compound: CNCc1ccc(-c2[nH]c3cc(F)cc4c3c2CCNC4=O)cc1 [rucaparib]
How it was run: as §1

[2] = compound: CNc1nc(-c2ccc3c(N)n[nH]c3c2)cc(N2C[C@@H](C(=O)NC3CCCCC3)CC[C@H]2C)n1
How it was run: as §1

encorafenib = compound: COC(=O)N[C@@H](C)CNc1nccc(-c2cn(C(C)C)nc2-c2cc(Cl)cc(NS(C)(=O)=O)c2F)n1 [encorafenib]
How it was run: as §1

[3] = compound: COC(=O)[C@H](CCSC)NC(=O)C1=C(C=C(C=C1)NC[C@H](CS)N)C2=CC=CC=C2
How it was run: as §1

[4] = compound: COC1=CC=C(C=C1)CN2C=CC3=C2C=C(C=C3)C(=O)NO
How it was run: as §1

filanesib = compound: CON(C)C(=O)N1N=C(c2cc(F)ccc2F)S[C@@]1(CCCN)c1ccccc1 [filanesib]
How it was run: as §1

zotarolimus = compound: CO[C@H]1C[C@@H]2CC[C@@H](C)[C@@](O)(O2)C(=O)C(=O)N2CCCC[C@H]2C(=O)O[C@H]([C@H](C)C[C@@H]2CC[C@H](n3cnnn3)[C@H](OC)C2)CC(=O)[C@H](C)/C=C(\C)[C@@H](O)[C@@H](OC)C(=O)[C@H](C)C[C@H](C)/C=C/C=C/C=C/1C [zotarolimus]
How it was run: as §1

idasanutlin = compound: COc1cc(C(=O)O)ccc1NC(=O)[C@@H]1N[C@@H](CC(C)(C)C)[C@](C#N)(c2ccc(Cl)cc2F)[C@H]1c1cccc(Cl)c1F [idasanutlin]
How it was run: as §1

alisertib = compound: COc1cc(Nc2ncc3c(n2)-c2ccc(Cl)cc2C(c2c(F)cccc2OC)=NC3)ccc1C(=O)O [alisertib]
How it was run: as §1

[5] = compound: COc1cc2nc(-c3cc(F)ccc3O)nc(N[C@@H]3CNC[C@H]3C(C)(C)O)c2cc1OC
How it was run: as §1

gefitinib = compound: COc1cc2ncnc(Nc3ccc(F)c(Cl)c3)c2cc1OCCCN1CCOCC1 [gefitinib]
How it was run: as §1

[6] = compound: COc1cccc2cc(-c3nc([C@H]4CC[C@H](C(=O)O)CC4)n4ncnc(N)c34)[nH]c12
How it was run: as §1

lapatinib = compound: CS(=O)(=O)CCNCc1ccc(-c2ccc3ncnc(Nc4ccc(OCc5cccc(F)c5)c(Cl)c4)c3c2)o1 [lapatinib]
How it was run: as §1

pictilisib = compound: CS(=O)(=O)N1CCN(Cc2cc3nc(-c4cccc5[nH]ncc45)nc(N4CCOCC4)c3s2)CC1 [pictilisib]
How it was run: as §1

Measured: log2 fold change

PDCD11 (UniProt Q14690)
inactive: saracatinib 0.036 | sotrastaurin -0.098 | alvocidib -0.007 | Tubastatin A 0.051 | [1] -0.139 | defactinib 0.069 | rucaparib -0.037 | [2] 0.028 | encorafenib 0.034 | [3] -0.143 | [4] 0.051 | filanesib -0.136 | zotarolimus 0.014 | idasanutlin -0.262 | alisertib -0.032 | [5] 0.026 | gefitinib 0.045 | [6] 0.145 | lapatinib -0.065 | pictilisib 0.071

PDHA1 isoform 4 (UniProt P08559)
inactive: saracatinib -0.163 | sotrastaurin -0.151 | alvocidib 0.048 | Tubastatin A 0.092 | [1] -0.042 | defactinib 0.174 | rucaparib 0.066 | [2] 0.183 | encorafenib 0.106 | [3] -0.036 | [4] 0.001 | filanesib 0.074 | zotarolimus 0.027 | idasanutlin -0.055 | alisertib -0.096 | [5] -0.026 | gefitinib -0.061 | [6] -0.125 | lapatinib 0.166 | pictilisib -0.091

PAXIP1 (UniProt Q6ZW49)
inactive: saracatinib -0.103 | sotrastaurin 0.057 | alvocidib 0.073 | Tubastatin A -0.041 | [1] 0.031 | defactinib -0.034 | rucaparib -0.186 | [2] 0.015 | encorafenib 0.129 | [3] 0.151 | [4] 0.131 | filanesib 0.049 | zotarolimus 0.011 | idasanutlin 0.085 | alisertib -0.042 | [5] -0.009 | gefitinib 0.077 | [6] -0.123 | lapatinib 0.027 | pictilisib 0.05

PAGR1 (UniProt Q9BTK6)
inactive: saracatinib 0.011 | sotrastaurin -0.017 | alvocidib 0.059 | Tubastatin A 0.045 | [1] -0.04 | defactinib -0.027 | rucaparib -0.037 | [2] -0.031 | encorafenib 0.038 | [3] -0.028 | [4] 0.172 | filanesib -0.126 | zotarolimus -0.009 | idasanutlin -0.025 | alisertib -0.118 | [5] -0.029 | gefitinib 0.002 | [6] -0.064 | lapatinib 0.041 | pictilisib -0.124

PAGE5 (UniProt Q96GU1)
inactive: saracatinib -0.014 | sotrastaurin 0.307 | alvocidib -0.044 | Tubastatin A 0.091 | [1] -0.004 | defactinib -0.014 | rucaparib 0.007 | [2] -0.073 | encorafenib -0.2 | [3] 0.4 | [4] 0.211 | filanesib 0.333 | zotarolimus 0.026 | idasanutlin 0.025 | alisertib -0.08 | [5] -0.089 | gefitinib 0.038 | [6] 0.055 | lapatinib -0.193 | pictilisib 0.177

PDLIM5 (UniProt Q96HC4)
inactive: saracatinib 0.004 | sotrastaurin -0.01 | alvocidib -0.042 | Tubastatin A 0.012 | [1] -0.032 | defactinib -0.033 | rucaparib -0.043 | [2] -0.009 | encorafenib 0.007 | [3] -0.005 | [4] -0.034 | filanesib -0.039 | zotarolimus 0.01 | idasanutlin -0.034 | alisertib 0.016 | [5] 0.021 | gefitinib -0.027 | [6] 0.053 | lapatinib -0.02 | pictilisib -0.024

PET100 (UniProt P0DJ07)
inactive: saracatinib 0.035 | sotrastaurin 0.081 | alvocidib 0.006 | Tubastatin A 0.03 | [1] 0.04 | defactinib -0.007 | rucaparib -0.041 | [2] -0.012 | encorafenib -0.079 | [3] 0.004 | [4] -0.109 | filanesib 0.056 | zotarolimus -0.018 | idasanutlin -0.138 | alisertib -0.021 | [5] 0.144 | gefitinib 0 | [6] -0.012 | lapatinib -0.038 | pictilisib -0.011

PAGE2 (UniProt Q7Z2X7)
inactive: saracatinib -0.003 | sotrastaurin 0.072 | alvocidib -0.036 | Tubastatin A 0.133 | [1] -0.004 | defactinib 0.014 | rucaparib -0.047 | [2] -0.07 | encorafenib -0.087 | [3] 0.083 | [4] -0.035 | filanesib 0.243 | zotarolimus 0.102 | idasanutlin 0.143 | alisertib -0.085 | [5] -0.196 | gefitinib 0.032 | [6] 0.11 | lapatinib -0.136 | pictilisib -0.03

PCYT2 isoform 3 (UniProt Q99447)
inactive: saracatinib 0.003 | sotrastaurin 0.005 | alvocidib -0.014 | Tubastatin A -0.04 | [1] 0.068 | defactinib 0.003 | rucaparib -0.041 | [2] 0.005 | encorafenib 0.006 | [3] -0.035 | [4] 0.018 | filanesib -0.094 | zotarolimus -0.008 | idasanutlin -0.026 | alisertib -0.05 | [5] 0.061 | gefitinib -0.013 | [6] 0.045 | lapatinib 0.024 | pictilisib -0.014

PCBD1 (UniProt P61457)
inactive: saracatinib 0.023 | sotrastaurin 0.028 | alvocidib 0.011 | Tubastatin A -0.01 | [1] -0.087 | defactinib -0.003 | rucaparib 0.034 | [2] -0.042 | encorafenib -0.014 | [3] -0.01 | [4] -0.047 | filanesib 0.024 | zotarolimus -0.059 | idasanutlin 0 | alisertib -0.096 | [5] -0.045 | gefitinib 0.003 | [6] 0.069 | lapatinib -0.019 | pictilisib 0.035

PCCB isoform 2 (UniProt P05166)
inactive: saracatinib -0.003 | sotrastaurin 0.068 | alvocidib -0.02 | Tubastatin A -0.035 | [1] -0.017 | defactinib -0.004 | rucaparib -0.029 | [2] 0.001 | encorafenib 0.002 | [3] 0.001 | [4] -0.006 | filanesib 0.014 | zotarolimus -0.002 | idasanutlin -0.038 | alisertib -0.005 | [5] 0.036 | gefitinib -0.045 | [6] 0.028 | lapatinib 0.049 | pictilisib -0.03

PES1 (UniProt O00541)
inactive: saracatinib -0.011 | sotrastaurin 0.018 | alvocidib 0.091 | Tubastatin A 0.068 | [1] -0.027 | defactinib 0.079 | rucaparib 0.213 | [2] 0.111 | encorafenib 0.169 | [3] -0.003 | [4] -0.127 | filanesib 0.266 | zotarolimus 0.09 | idasanutlin 0.151 | alisertib -0.36 | [5] 0.053 | gefitinib -0.044 | [6] -0.176 | lapatinib 0.026 | pictilisib -0.036

PDIA4 (UniProt P13667)
inactive: saracatinib -0.083 | sotrastaurin -0.048 | alvocidib -0.004 | Tubastatin A 0.026 | [1] 0.02 | defactinib 0.043 | rucaparib 0.007 | [2] 0.026 | encorafenib 0.067 | [3] -0.009 | [4] -0.036 | filanesib 0.046 | zotarolimus 0.046 | idasanutlin 0.014 | alisertib -0.071 | [5] 0.002 | gefitinib -0.033 | [6] -0.082 | lapatinib 0.021 | pictilisib -0.074

Taken from the results shown (2 entries):
PDHA1 isoform 4 (UniProt P08559)
inactive: saracatinib -0.163 | sotrastaurin -0.151 | alvocidib 0.048 | Tubastatin A 0.092 | [1] -0.042 | defactinib 0.174 | rucaparib 0.066 | [2] 0.183 | encorafenib 0.106 | [3] -0.036 | [4] 0.001 | filanesib 0.074 | zotarolimus 0.027 | idasanutlin -0.055 | alisertib -0.096 | [5] -0.026 | gefitinib -0.061 | [6] -0.125 | lapatinib 0.166 | pictilisib -0.091

PAXIP1 (UniProt Q6ZW49)
inactive: saracatinib -0.103 | sotrastaurin 0.057 | alvocidib 0.073 | Tubastatin A -0.041 | [1] 0.031 | defactinib -0.034 | rucaparib -0.186 | [2] 0.015 | encorafenib 0.129 | [3] 0.151 | [4] 0.131 | filanesib 0.049 | zotarolimus 0.011 | idasanutlin 0.085 | alisertib -0.042 | [5] -0.009 | gefitinib 0.077 | [6] -0.123 | lapatinib 0.027 | pictilisib 0.05

Next part

PABPC4 isoform 3 (UniProt Q13310)
inactive: saracatinib 0.021 | sotrastaurin 0.016 | alvocidib 0.043 | Tubastatin A 0.045 | [1] 0.042 | defactinib 0.054 | rucaparib 0.2 | [2] -0.006 | encorafenib 0.003 | [3] 0.013 | [4] 0.003 | filanesib 0.088 | zotarolimus -0.035 | idasanutlin 0.099 | alisertib -0.046 | [5] -0.04 | gefitinib -0.033 | [6] -0.095 | lapatinib 0.048 | pictilisib -0.091

PANK2 (UniProt Q9BZ23)
inactive: saracatinib 0.081 | sotrastaurin -0.035 | alvocidib -0.111 | Tubastatin A -0.016 | [1] -0.121 | defactinib -0.041 | rucaparib 0.034 | [2] -0.051 | encorafenib 0.001 | [3] 0.006 | [4] -0.022 | filanesib -0.144 | zotarolimus 0.069 | idasanutlin 0.103 | alisertib -0.06 | [5] 0.052 | gefitinib 0.013 | [6] 0.06 | lapatinib -0.04 | pictilisib 0.049

PALMD (UniProt Q9NP74)
inactive: saracatinib 0.045 | sotrastaurin 0.16 | alvocidib -0.114 | Tubastatin A 0.088 | [1] -0.026 | defactinib -0.07 | rucaparib 0.263 | [2] -0.032 | encorafenib -0.07 | [3] 0.072 | [4] -0.015 | filanesib 0.034 | zotarolimus -0.011 | idasanutlin 0.079 | alisertib 0.012 | [5] 0.043 | gefitinib -0.021 | [6] 0 | lapatinib 0.009 | pictilisib -0.009
